Experimental data published in article PMC7898468, “TrkA-mediated endocytosis of p75-CTF prevents cholinergic neuron death upon γ-secretase inhibition” (Life Science Alliance, 2021).
No constants are given. Whether binding was seen depends on the method and setting. Where a sequence is shown, tags or fusion partners need not be part of it.

Target: C101-p75-C257A-3xFLAG (rat)
Assay: SDS-PAGE and Western blot with or without DTT; purified C101-p75-3xFLAG substrates, with or without DTT (20 mM), anti-FLAG blot; both purified

binding: no binding
B1: C101-p75-C257A-3xFLAG (domain or fragment)
chain: MVTTVMGSSQPVVTRGTTDNLIPVYASILAAVVVGLVAYIAFKRWNSCKQNKQGANSRPVNQTPPPEGEKLHSDSGISVDSQSLHDQQTHTQTASGQALKG
